Measurements taken from PMC3695765.
Results are given in words; binding and its absence hold for the method and conditions named. Binding seen in cells or lysates may run through a third protein. Some binding calls cover weakened binding; strength is not graded here. Where a sequence is shown, tags or fusion partners need not be part of it.

Sequences of proteins named here, by UniProt entry; tags and fusion partners are left off.
UniProt O97758: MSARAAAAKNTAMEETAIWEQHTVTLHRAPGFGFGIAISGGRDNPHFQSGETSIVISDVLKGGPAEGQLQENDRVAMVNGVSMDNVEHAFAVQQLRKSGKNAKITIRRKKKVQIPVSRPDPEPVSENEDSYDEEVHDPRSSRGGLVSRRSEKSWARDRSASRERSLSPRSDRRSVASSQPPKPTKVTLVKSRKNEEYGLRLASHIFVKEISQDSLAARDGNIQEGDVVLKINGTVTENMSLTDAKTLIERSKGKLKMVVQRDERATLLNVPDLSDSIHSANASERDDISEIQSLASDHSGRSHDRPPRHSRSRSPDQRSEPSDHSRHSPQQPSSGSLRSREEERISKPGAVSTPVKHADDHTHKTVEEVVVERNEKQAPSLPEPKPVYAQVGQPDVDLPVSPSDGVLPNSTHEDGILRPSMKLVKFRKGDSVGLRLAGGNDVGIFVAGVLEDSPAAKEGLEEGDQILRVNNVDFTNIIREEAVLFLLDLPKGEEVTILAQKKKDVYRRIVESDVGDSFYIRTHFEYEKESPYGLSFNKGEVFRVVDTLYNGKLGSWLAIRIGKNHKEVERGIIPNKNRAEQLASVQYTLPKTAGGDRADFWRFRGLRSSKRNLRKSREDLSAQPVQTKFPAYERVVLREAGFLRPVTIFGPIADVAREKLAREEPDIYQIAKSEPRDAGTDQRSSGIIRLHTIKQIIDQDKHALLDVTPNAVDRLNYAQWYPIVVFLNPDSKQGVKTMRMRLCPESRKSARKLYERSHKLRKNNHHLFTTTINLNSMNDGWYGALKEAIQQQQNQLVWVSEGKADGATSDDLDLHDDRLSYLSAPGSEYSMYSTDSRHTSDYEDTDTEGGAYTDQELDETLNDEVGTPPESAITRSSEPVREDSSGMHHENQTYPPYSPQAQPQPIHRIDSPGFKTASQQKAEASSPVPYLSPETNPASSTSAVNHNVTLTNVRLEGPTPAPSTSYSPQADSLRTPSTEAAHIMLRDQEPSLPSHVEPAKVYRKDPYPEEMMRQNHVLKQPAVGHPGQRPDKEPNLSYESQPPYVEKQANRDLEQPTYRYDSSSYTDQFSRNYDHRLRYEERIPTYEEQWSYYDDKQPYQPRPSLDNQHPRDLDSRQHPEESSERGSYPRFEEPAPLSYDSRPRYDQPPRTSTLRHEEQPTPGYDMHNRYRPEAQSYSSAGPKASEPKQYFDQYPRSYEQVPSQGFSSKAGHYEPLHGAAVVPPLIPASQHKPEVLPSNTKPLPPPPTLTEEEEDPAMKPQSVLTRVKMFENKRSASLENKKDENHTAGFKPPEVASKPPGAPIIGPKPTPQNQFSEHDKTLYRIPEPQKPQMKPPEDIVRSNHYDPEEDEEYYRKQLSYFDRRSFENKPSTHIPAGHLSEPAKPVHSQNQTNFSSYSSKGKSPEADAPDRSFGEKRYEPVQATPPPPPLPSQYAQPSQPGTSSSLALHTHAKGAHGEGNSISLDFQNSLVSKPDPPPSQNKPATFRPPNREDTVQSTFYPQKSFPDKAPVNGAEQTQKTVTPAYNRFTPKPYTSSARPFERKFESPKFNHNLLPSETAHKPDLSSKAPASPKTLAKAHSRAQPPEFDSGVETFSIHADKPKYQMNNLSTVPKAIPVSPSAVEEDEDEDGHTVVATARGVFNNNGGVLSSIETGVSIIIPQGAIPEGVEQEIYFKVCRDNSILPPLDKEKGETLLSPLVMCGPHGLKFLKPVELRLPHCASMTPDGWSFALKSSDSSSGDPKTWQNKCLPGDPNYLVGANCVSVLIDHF

What was measured:
[1] = molecular target: T1, GST-OccC T400A/T404A/S408A (human) (UniProt Q16625); experiment: pull-down; GST-OccC constructs used to pull down endogenous ZO-1 from MDCK C11 lysates; data not shown; only the target purified
T1 sequence: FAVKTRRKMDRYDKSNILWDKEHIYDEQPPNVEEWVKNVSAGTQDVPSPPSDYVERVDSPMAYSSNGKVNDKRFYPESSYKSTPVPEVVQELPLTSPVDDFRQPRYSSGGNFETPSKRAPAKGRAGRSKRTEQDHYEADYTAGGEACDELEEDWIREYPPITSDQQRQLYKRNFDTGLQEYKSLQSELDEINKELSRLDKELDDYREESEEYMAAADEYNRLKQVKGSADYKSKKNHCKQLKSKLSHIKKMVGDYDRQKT

[2] = molecular target: T2, GST-OccC T400E/T404E/S408E (human) (UniProt Q16625); experiment: as above
T2 sequence: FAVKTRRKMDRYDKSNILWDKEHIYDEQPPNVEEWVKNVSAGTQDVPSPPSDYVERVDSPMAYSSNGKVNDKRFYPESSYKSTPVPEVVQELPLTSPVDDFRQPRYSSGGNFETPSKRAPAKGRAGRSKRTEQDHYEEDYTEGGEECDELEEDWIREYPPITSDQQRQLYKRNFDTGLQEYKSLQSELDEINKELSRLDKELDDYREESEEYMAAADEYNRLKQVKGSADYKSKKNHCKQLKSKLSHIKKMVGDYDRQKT

[3] = molecular target: T3, GST-OccC, GST fusion of the C-terminal cytoplasmic tail of human occludin (amino acids 263-523) (human) (UniProt Q16625); experiment: as above
T3 sequence: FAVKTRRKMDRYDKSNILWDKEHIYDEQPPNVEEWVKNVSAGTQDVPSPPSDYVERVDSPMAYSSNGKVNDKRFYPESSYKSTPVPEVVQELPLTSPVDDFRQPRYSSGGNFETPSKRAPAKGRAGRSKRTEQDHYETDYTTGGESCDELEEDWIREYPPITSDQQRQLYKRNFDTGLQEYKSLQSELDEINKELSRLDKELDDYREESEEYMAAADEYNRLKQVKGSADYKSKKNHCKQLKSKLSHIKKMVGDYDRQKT

[4] = molecular target: T1, GST-OccC T400A/T404A/S408A (human); experiment: pull-down; 5 μg purified GST-OccC construct with clarified lysate (1 mg protein) of MDCK C11 cells transfected with pGW-HA-cZO-2; GSH-agarose, 1 h at 4°C; PBS, 0.2% Triton X-100, 1 mM NaVO3, 10 mM NaF; blot with anti-HA; only the target purified
[5] = molecular target: T3, GST-OccC, GST fusion of the C-terminal cytoplasmic tail of human occludin (amino acids 263-523) (human); experiment: as above
[6] = molecular target: T3, GST-OccC, GST fusion of the C-terminal cytoplasmic tail of human occludin (amino acids 263-523) (human); experiment: pull-down; purified GST-OccC, with or without prephosphorylation in vitro by purified CK2, used to pull down FLAG-ZO-2 from lysates of transiently transfected HEK-293 cells; blot with anti-FLAG M2; only the target purified
[7] = molecular target: T4, human occludin wild type, N-terminal fusion with YFP or CFP (human), Q16625; experiment: FRET or BRET; acceptor photobleaching FRET at cell-cell contacts of living co-transfected HEK-293 cells; CFP and YFP fusions; cis-interaction along the cell membrane; settings: remark: other sources report otherwise
T4 chain: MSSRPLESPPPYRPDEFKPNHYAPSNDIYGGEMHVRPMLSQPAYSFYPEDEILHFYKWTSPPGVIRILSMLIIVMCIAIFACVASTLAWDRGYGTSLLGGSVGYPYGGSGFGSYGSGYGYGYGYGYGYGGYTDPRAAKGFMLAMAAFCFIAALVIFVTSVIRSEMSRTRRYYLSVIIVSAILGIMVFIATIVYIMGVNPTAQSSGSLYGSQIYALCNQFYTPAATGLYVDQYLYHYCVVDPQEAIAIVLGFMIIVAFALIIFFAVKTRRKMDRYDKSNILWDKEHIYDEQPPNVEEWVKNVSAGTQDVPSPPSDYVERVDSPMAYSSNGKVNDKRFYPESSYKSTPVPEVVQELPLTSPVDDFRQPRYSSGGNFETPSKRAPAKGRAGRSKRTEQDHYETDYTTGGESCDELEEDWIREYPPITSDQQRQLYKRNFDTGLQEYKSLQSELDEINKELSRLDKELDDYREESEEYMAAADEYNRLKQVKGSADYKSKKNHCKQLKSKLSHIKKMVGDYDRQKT

[8] = molecular target: T1, GST-OccC T400A/T404A/S408A (human); experiment: pull-down; GST fusion proteins of the occludin C-terminal cytoplasmic domain incubated with lysates of HEK-293 cells transiently transfected with FLAG-occludin; GSH-agarose; blot with anti-FLAG M2; only the target purified
[9] = molecular target: T2, GST-OccC T400E/T404E/S408E (human); experiment: as above

Question: How did the binding [1] turn out when “endogenous ZO-1 of MDCK C11 cells (from UniProt O97758 1-1769)” was run?
Answer: binds

Question: What about the binding [2] of the same molecule?
Answer: binds

Question: What about the binding [3] of the same molecule?
Answer: binds

B1: HA-tagged ZO-2 (pGW-HA-cZO-2) (protein, UniProt Q95168 1-1174)
chain: MEELIWEQYTVTLQKDSKRGFGIAVSGGRDNPHFENGETSIVISDVLPGGPADGLLQENDRVVMVNGTPMEDVLHSFAVQQLRKSGKIAAIVVKRPRKVQLAPPQGSLPVDEDDRAFEVMDEFDGRSARSGYSERSRRSSHGGRSRSWEDSPERGRPHERAWSQERERSRGRSLERGLDHDDDYRRPRERSRGRSLERGLDHDDDYGRPGERSHGMSTDRGYDRGYDRGYDRGYDRTYSPEAEYGRRTQPDARHAGSRSRSREHLRSRSPSPELRGRPDHAGQPDSDRPIGVLLMKSKANEEYGLRLGSQIFIKQMTRTALATKDGNLHEGDIILKINGTVTENMSLTDARKLIEKSRGKLQLVVLRDSKQTLINIPSLNDSDSEIEDISEIESNRSFSPEERRQQYSDYDYHSSNEKLKERPNSREDMQNRWSRMGATPTPFKSMGDIASVVGTENSKEPRYQEEPPAPQPKAAPRTFLRPSPEDEAIYGPNTKMVRFKKGDSVGLRLAGGNDVGIFVAGIQEGTSAEQEGLQEGDQILKVNTQDFRGLVREDAVLYLLEIPKGEMVTILAQSRADVYRDILACGRGDSFFIRSHFECEKETPQSLAFSRGEVFRVVDTLYDGKLGHWLAVRIGNELEKGLIPNKSRAEQMASVQNAQRDNAGDRADFWRMRGQRSGMKKNLRKSREDLTAAVSVSTKFPAYERVLLREAGFKRPVVLFGPIADIALEKLANELPDLFQTAKTEPKDAGSEKSSGVVRLNTVRQIIEQDKHALLDVTPKAVDLLNYTQWFPIVIFFNPDSRQGVKTMRQRLNPTSNKSSRKLYDQANKLKKTCAHLFTATINLNSANDSWFGSLKDTIQHQQGEAVWVSEGKMEGMDDDPEDRMSYLTAMGADYLSCDSRLISDFEDTDGEGGAYTDNELDEPAEEPLVSSITRSSEPVQHEESIRKPSPEPRAQMRRAASRDQLRDSSPPPAFKPEPPKAKTQNREESFDISRSHDYKSNPSAVAGNEVSGASTRSCPPPIAAKPSFGRSILKPSTPVPSPESEEVGEGSEEQEGAPKSVLGKVKIFEKMDHKARLQRMQELQEAQNARIEIAQKHPDIYAVPIKTHKPDPGLSQHTSSRPPEPQKGPSRLYQDPRGSYGSDAEEEEYRQQLSEHSKRGYYSQPSRYRDTEL
Question: Which results are given for B1?
Answer: binding [4]: binds; binding [5]: binds

B2: FLAG-tagged ZO-2 (pFLAG-CMV2-hZO-2) (protein, UniProt Q9UDY2 1-1190)
chain: MPVRGDRGFPPRRELSGWLRAPGMEELIWEQYTVTLQKDSKRGFGIAVSGGRDNPHFENGETSIVISDVLPGGPADGLLQENDRVVMVNGTPMEDVLHSFAVQQLRKSGKVAAIVVKRPRKVQVAALQASPPLDQDDRAFEVMDEFDGRSFRSGYSERSRLNSHGGRSRSWEDSPERGRPHERARSRERDLSRDRSRGRSLERGLDQDHARTRDRSRGRSLERGLDHDFGPSRDRDRDRSRGRSIDQDYERAYHRAYDPDYERAYSPEYRRGARHDARSRGPRSRSREHPHSRSPSPEPRGRPGPIGVLLMKSRANEEYGLRLGSQIFVKEMTRTGLATKDGNLHEGDIILKINGTVTENMSLTDARKLIEKSRGKLQLVVLRDSQQTLINIPSLNDSDSEIEDISEIESNRSFSPEERRHQYSDYDYHSSSEKLKERPSSREDTPSRLSRMGATPTPFKSTGDIAGTVVPETNKEPRYQEDPPAPQPKAAPRTFLRPSPEDEAIYGPNTKMVRFKKGDSVGLRLAGGNDVGIFVAGIQEGTSAEQEGLQEGDQILKVNTQDFRGLVREDAVLYLLEIPKGEMVTILAQSRADVYRDILACGRGDSFFIRSHFECEKETPQSLAFTRGEVFRVVDTLYDGKLGNWLAVRIGNELEKGLIPNKSRAEQMASVQNAQRDNAGDRADFWRMRGQRSGVKKNLRKSREDLTAVVSVSTKFPAYERVLLREAGFKRPVVLFGPIADIAMEKLANELPDWFQTAKTEPKDAGSEKSTGVVRLNTVRQIIEQDKHALLDVTPKAVDLLNYTQWFPIVIFFNPDSRQGVKTMRQRLNPTSNKSSRKLFDQANKLKKTCAHLFTATINLNSANDSWFGSLKDTIQHQQGEAVWVSEGKMEGMDDDPEDRMSYLTAMGADYLSCDSRLISDFEDTDGEGGAYTDNELDEPAEEPLVSSITRSSEPVQHEESIRKPSPEPRAQMRRAASSDQLRDNSPPPAFKPEPPKAKTQNKEESYDFSKSYEYKSNPSAVAGNETPGASTKGYPPPVAAKPTFGRSILKPSTPIPPQEGEEVGESSEEQDNAPKSVLGKVKIFEKMDHKARLQRMQELQEAQNARIEIAQKHPDIYAVPIKTHKPDPGTPQHTSSRPPEPQKAPSRPYQDTRGSYGSDAEEEEYRQQLSEHSKRGYYGQSARYRDTEL
Question: Which binding [6] does the source give for B2 here?
Answer: binds

B3: human occludin wild type, N-terminal fusion with YFP or CFP, Q16625 1-522 (protein)
chain: MSSRPLESPPPYRPDEFKPNHYAPSNDIYGGEMHVRPMLSQPAYSFYPEDEILHFYKWTSPPGVIRILSMLIIVMCIAIFACVASTLAWDRGYGTSLLGGSVGYPYGGSGFGSYGSGYGYGYGYGYGYGGYTDPRAAKGFMLAMAAFCFIAALVIFVTSVIRSEMSRTRRYYLSVIIVSAILGIMVFIATIVYIMGVNPTAQSSGSLYGSQIYALCNQFYTPAATGLYVDQYLYHYCVVDPQEAIAIVLGFMIIVAFALIIFFAVKTRRKMDRYDKSNILWDKEHIYDEQPPNVEEWVKNVSAGTQDVPSPPSDYVERVDSPMAYSSNGKVNDKRFYPESSYKSTPVPEVVQELPLTSPVDDFRQPRYSSGGNFETPSKRAPAKGRAGRSKRTEQDHYETDYTTGGESCDELEEDWIREYPPITSDQQRQLYKRNFDTGLQEYKSLQSELDEINKELSRLDKELDDYREESEEYMAAADEYNRLKQVKGSADYKSKKNHCKQLKSKLSHIKKMVGDYDRQKT
Question: For B3, which binding [7] is on record?
Answer: binds

B4: full-length FLAG-occludin (protein, UniProt Q16625 1-522)
chain: MSSRPLESPPPYRPDEFKPNHYAPSNDIYGGEMHVRPMLSQPAYSFYPEDEILHFYKWTSPPGVIRILSMLIIVMCIAIFACVASTLAWDRGYGTSLLGGSVGYPYGGSGFGSYGSGYGYGYGYGYGYGGYTDPRAAKGFMLAMAAFCFIAALVIFVTSVIRSEMSRTRRYYLSVIIVSAILGIMVFIATIVYIMGVNPTAQSSGSLYGSQIYALCNQFYTPAATGLYVDQYLYHYCVVDPQEAIAIVLGFMIIVAFALIIFFAVKTRRKMDRYDKSNILWDKEHIYDEQPPNVEEWVKNVSAGTQDVPSPPSDYVERVDSPMAYSSNGKVNDKRFYPESSYKSTPVPEVVQELPLTSPVDDFRQPRYSSGGNFETPSKRAPAKGRAGRSKRTEQDHYETDYTTGGESCDELEEDWIREYPPITSDQQRQLYKRNFDTGLQEYKSLQSELDEINKELSRLDKELDDYREESEEYMAAADEYNRLKQVKGSADYKSKKNHCKQLKSKLSHIKKMVGDYDRQKT
Question: Which binding [8] does the source give for B4 here?
Answer: binds

Question: And the binding [9]?
Answer: binds
